# Source: article PMC13239758
# Protein sequences, listed by entry. Tags and fused reporters are not part of them.
# UniProt Q9QVP9: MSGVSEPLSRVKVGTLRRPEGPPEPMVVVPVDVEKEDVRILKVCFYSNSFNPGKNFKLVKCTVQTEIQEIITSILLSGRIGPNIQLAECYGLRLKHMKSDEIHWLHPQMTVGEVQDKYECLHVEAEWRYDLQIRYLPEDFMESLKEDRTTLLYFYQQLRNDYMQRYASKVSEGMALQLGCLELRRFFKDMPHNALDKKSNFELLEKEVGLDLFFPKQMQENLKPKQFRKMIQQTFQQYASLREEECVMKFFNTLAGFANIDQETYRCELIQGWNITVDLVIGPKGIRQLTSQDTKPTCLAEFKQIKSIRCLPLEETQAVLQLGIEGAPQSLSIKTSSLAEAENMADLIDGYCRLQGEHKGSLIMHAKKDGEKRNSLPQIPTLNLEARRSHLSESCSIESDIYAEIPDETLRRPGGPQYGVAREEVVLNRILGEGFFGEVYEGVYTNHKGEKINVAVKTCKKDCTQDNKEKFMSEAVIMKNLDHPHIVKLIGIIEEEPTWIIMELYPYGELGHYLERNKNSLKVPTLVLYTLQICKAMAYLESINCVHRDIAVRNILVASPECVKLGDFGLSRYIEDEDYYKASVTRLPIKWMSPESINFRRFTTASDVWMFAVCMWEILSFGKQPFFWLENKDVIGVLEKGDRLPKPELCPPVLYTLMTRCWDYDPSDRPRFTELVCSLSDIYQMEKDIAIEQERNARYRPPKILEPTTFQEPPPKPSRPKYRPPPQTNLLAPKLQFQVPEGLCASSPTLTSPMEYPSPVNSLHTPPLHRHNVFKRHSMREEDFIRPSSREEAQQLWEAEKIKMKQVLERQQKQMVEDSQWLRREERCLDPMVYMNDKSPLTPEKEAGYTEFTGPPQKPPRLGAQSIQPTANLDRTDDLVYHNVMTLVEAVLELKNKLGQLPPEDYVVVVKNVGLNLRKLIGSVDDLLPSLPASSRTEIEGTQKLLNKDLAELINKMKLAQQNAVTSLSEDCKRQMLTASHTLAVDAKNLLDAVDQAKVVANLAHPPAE
# UniProt Q9ES74: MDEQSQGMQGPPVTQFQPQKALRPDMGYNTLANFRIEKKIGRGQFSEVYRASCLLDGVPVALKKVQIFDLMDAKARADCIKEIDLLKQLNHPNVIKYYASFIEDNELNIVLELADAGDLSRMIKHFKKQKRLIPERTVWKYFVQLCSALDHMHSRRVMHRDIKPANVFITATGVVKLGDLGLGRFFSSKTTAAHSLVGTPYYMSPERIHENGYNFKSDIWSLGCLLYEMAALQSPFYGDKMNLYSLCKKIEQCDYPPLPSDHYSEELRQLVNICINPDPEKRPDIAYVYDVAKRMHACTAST
# Results are given in words; binding and its absence hold for the method and conditions named. For some assays here: In cells and extracts the contact can be indirect. Some results given as binding are weak or reduced against the parent protein; the word gives no strength. For some assays here: Sequences can lack the tags named with a protein.
# T1: GFP-CD63 full length (UniProt P41731)
# T1 sequence: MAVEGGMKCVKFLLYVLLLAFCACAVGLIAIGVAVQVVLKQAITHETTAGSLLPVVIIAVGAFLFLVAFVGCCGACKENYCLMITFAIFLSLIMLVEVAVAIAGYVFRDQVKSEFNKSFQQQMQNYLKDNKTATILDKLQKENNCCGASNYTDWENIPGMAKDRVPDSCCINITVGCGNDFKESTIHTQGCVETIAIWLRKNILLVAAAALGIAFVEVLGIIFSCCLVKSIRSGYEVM
# T2: Myc-tagged ASC (UniProt Q9EPB4)
# T2 sequence: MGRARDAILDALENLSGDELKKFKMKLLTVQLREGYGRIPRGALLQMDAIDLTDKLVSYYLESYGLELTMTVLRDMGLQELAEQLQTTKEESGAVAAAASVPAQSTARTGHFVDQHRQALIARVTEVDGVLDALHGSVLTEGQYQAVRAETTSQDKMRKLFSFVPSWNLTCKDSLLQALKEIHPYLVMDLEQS
# T3: CD63 (endogenous, mouse BMMCs) (mouse (endogenous in BMMCs)) (UniProt P41731)
# T3 sequence: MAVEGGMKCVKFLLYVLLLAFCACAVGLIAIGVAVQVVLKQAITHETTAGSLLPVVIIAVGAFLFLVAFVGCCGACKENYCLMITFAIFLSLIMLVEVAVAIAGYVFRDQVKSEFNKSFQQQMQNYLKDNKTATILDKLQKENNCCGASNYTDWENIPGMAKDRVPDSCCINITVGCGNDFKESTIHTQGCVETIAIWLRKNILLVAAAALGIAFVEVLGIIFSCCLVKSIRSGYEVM
# Key:
# GFP-CD63 full length = target: T1, GFP-CD63 full length; assay: co-IP; HEK293T cells co-transfected with GFP-CD63 (full length or truncates) and Flag- or Myc-tagged NLRP3 or ASC constructs; lysed after 36 h, IP with 1 μg Flag, GFP or Myc antibody, immunoblot
# Myc-tagged ASC = target: T2, Myc-tagged ASC; assay: co-IP; competitive co-IP in HEK293T: a constant pair co-expressed with varying amounts of a third plasmid (GFP-CD63 against Myc-ASC/Flag-caspase-1, IP with Flag antibody; 1 and 5 μg Flag-NLRP3 or Myc-ASC against a constant 5 μg of the GFP-CD63 truncate)
# [1] = target: Pyk2 (endogenous, mouse BMMCs) (mouse (endogenous in BMMCs)) (UniProt Q9QVP9); assay: co-IP; endogenous proteins; IgE-sensitised WT (also Asc−/−) BMMCs untreated or stimulated with Ag (DNP-BSA 1 μg/ml) for 3-30 min; 1 mg pre-cleared lysate in IP lysis buffer, 1 μg antibody to CD63, NLRP3, ASC, NEK7 or Pyk2 overnight at 4 °C, G-plus agarose, immunoblot; some samples pretreated with BAPTA-AM, CAY-10736, oridonin or CY-09
# [2] = target: NEK7 (endogenous, mouse BMMCs) (mouse (endogenous in BMMCs)) (UniProt Q9ES74); assay: as above
# [3] = target: T3, CD63 (endogenous, mouse BMMCs) (mouse (endogenous in BMMCs)); assay: cross-linking; NP-40 lysate pellets of BMMCs (WT, Nlrp3−/−, Asc−/−; untreated, IgE–Ag 5 min or LPS/nigericin 15 min; some pretreated with CAY-10736 or oridonin) cross-linked with 2 mM disuccinimidyl suberate 30 min at room temperature; immunoblot for NLRP3, ASC, CD63
# [4] = target: T3, CD63 (endogenous, mouse BMMCs) (mouse (endogenous in BMMCs)); assay: SEC; lysate of WT BMMCs stimulated with IgE–Ag for 5 min; Sephacryl 100 HR, 50 mM Tris-HCl pH 7.4, 150 mM NaCl, 1% octyl glucoside; fractions immunoblotted for NLRP3, ASC, caspase-1, CD63
# [5] = target: NEK7 (endogenous, mouse BMMCs) (mouse (endogenous in BMMCs)), Q9ES74; assay: co-IP; endogenous proteins; IgE-sensitised WT (also Asc−/−) BMMCs untreated or stimulated with Ag (DNP-BSA 1 μg/ml) for 3-30 min; 1 mg pre-cleared lysate in IP lysis buffer, 1 μg antibody to CD63, NLRP3, ASC, NEK7 or Pyk2 overnight at 4 °C, G-plus agarose, immunoblot; some samples pretreated with BAPTA-AM, CAY-10736, oridonin or CY-09; conditions: remark: other sources report otherwise
# [6] = target: Pyk2 (endogenous, mouse BMMCs) (mouse (endogenous in BMMCs)), Q9QVP9; assay: as above; conditions: remark: other sources report otherwise
binder,measurement,setting,value
"Flag–CARD (CARD domain of ASC) (domain or fragment, UniProt Q9EPB4 105-193) STARTGHFVDQHRQALIARVTEVDGVLDALHGSVLTEGQYQAVRAETTSQDKMRKLFSFVPSWNLTCKDSLLQALKEIHPYLVMDLEQS",binding,GFP-CD63 full length,binds
"GFP-CD63 full length (protein, UniProt P41731 1-238) MAVEGGMKCVKFLLYVLLLAFCACAVGLIAIGVAVQVVLKQAITHETTAGSLLPVVIIAVGAFLFLVAFVGCCGACKENYCLMITFAIFLSLIMLVEVAVAIAGYVFRDQVKSEFNKSFQQQMQNYLKDNKTATILDKLQKENNCCGASNYTDWENIPGMAKDRVPDSCCINITVGCGNDFKESTIHTQGCVETIAIWLRKNILLVAAAALGIAFVEVLGIIFSCCLVKSIRSGYEVM",binding,Myc-tagged ASC,binds
"CD63 (endogenous, mouse BMMCs) (protein, UniProt P41731 1-238) MAVEGGMKCVKFLLYVLLLAFCACAVGLIAIGVAVQVVLKQAITHETTAGSLLPVVIIAVGAFLFLVAFVGCCGACKENYCLMITFAIFLSLIMLVEVAVAIAGYVFRDQVKSEFNKSFQQQMQNYLKDNKTATILDKLQKENNCCGASNYTDWENIPGMAKDRVPDSCCINITVGCGNDFKESTIHTQGCVETIAIWLRKNILLVAAAALGIAFVEVLGIIFSCCLVKSIRSGYEVM",binding,[1],no binding
same,binding,[2],no binding
same,binding,[3],binds
"caspase-1 (endogenous, mouse BMMCs) (protein, UniProt P29452 1-402) MADKILRAKRKQFINSVSIGTINGLLDELLEKRVLNQEEMDKIKLANITAMDKARDLCDHVSKKGPQASQIFITYICNEDCYLAGILELQSAPSAETFVATEDSKGGHPSSSETKEEQNKEDGTFPGLTGTLKFCPLEKAQKLWKENPSEIYPIMNTTTRTRLALIICNTEFQHLSPRVGAQVDLREMKLLLEDLGYTVKVKENLTALEMVKEVKEFAACPEHKTSDSTFLVFMSHGIQEGICGTTYSNEVSDILKVDTIFQMMNTLKCPSLKDKPKVIIIQACRGEKQGVVLLKDSVRDSEEDFLTDAIFEDDGIKKAHIEKDFIAFCSSTPDNVSWRHPVRGSLFIESLIKHMKEYAWSCDLEDIFRKVRFSFEQPEFRLQMPTADRVTLTKRFYLFPGH",binding,[4],no binding
"ASC (endogenous, mouse BMMCs), Q9EPB4 1-193 (protein) MGRARDAILDALENLSGDELKKFKMKLLTVQLREGYGRIPRGALLQMDAIDLTDKLVSYYLESYGLELTMTVLRDMGLQELAEQLQTTKEESGAVAAAASVPAQSTARTGHFVDQHRQALIARVTEVDGVLDALHGSVLTEGQYQAVRAETTSQDKMRKLFSFVPSWNLTCKDSLLQALKEIHPYLVMDLEQS",binding,[5],no binding
"NLRP3 (endogenous, mouse BMMCs), Q8R4B8 1-1033 (protein) MTSVRCKLAQYLEDLEDVDLKKFKMHLEDYPPEKGCIPVPRGQMEKADHLDLATLMIDFNGEEKAWAMAVWIFAAINRRDLWEKAKKDQPEWNDTCTSHSSMVCQEDSLEEEWMGLLGYLSRISICKKKKDYCKMYRRHVRSRFYSIKDRNARLGESVDLNSRYTQLQLVKEHPSKQEREHELLTIGRTKMRDSPMSSLKLELLFEPEDGHSEPVHTVVFQGAAGIGKTILARKIMLDWALGKLFKDKFDYLFFIHCREVSLRTPRSLADLIVSCWPDPNPPVCKILRKPSRILFLMDGFDELQGAFDEHIGEVCTDWQKAVRGDILLSSLIRKKLLPKASLLITTRPVALEKLQHLLDHPRHVEILGFSEAKRKEYFFKYFSNELQAREAFRLIQENEVLFTMCFIPLVCWIVCTGLKQQMETGKSLAQTSKTTTAVYVFFLSSLLQSRGGIEEHLFSDYLQGLCSLAADGIWNQKILFEECDLRKHGLQKTDVSAFLRMNVFQKEVDCERFYSFSHMTFQEFFAAMYYLLEEEAEGETVRKGPGGCSDLLNRDVKVLLENYGKFEKGYLIFVVRFLFGLVNQERTSYLEKKLSCKISQQVRLELLKWIEVKAKAKKLQWQPSQLELFYCLYEMQEEDFVQSAMDHFPKIEINLSTRMDHVVSSFCIKNCHRVKTLSLGFFHNSPKEEEEERRGGRPLDQVQCVFPDTHVACSSRLVNCCLTSSFCRGLFSSLSTNRSLTELDLSDNTLGDPGMRVLCEALQHPGCNIQRLWLGRCGLSHQCCFDISSVLSSSQKLVELDLSDNALGDFGIRLLCVGLKHLLCNLQKLWLVSCCLTSACCQDLALVLSSNHSLTRLYIGENALGDSGVQVLCEKMKDPQCNLQKLGLVNSGLTSICCSALTSVLKTNQNFTHLYLRSNALGDTGLRLLCEGLLHPDCKLQMLELDNCSLTSHSCWNLSTILTHNHSLRKLNLGNNDLGDLCVVTLCEVLKQQGCLLQSLQLGEMYLNRETKRALEALQEEKPELTIVFEISW",binding,[6],no binding
